PubChem BioAssay AID1159578 | Peter MacCallum Cancer Centre – 2015
Here is one part, drawn at random, of about 18,000 reagents. Of all reagents, about 1,030 (5.7%) got an active call. 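Inactive calls also include pools with fewer than 3300 nuclei, whose migration was not assessed.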 Raw values are not corrected between plates. Entries without a mark were called inactive. Not all columns of the deposit are shown.

- Test: 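Knock-downs that alter how fast lymphatic endothelial cells migrate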 (primary screen)
- Cells: human lymphatic endothelial cells
- Knock-down reagent: siRNA pool against human genes, 40 nM
- Timing: 48 h after transfection
- Measurement: 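Cells stained with dye and imaged after a scratch; covered wound area and nuclei counted, duplicates averaged, migration set against mock wells and turned into a robust z-score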
- Direction: migration robust z-score: higher = faster migration into the scratch; nuclei per well: higher = more cells in the well
- Rule for the call: 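Migration changed when robust z exceeds 2 or falls below -2 and mean nuclei number is at least 3300; otherwise not called changed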
- Calls: active = migration changed; inactive = no migration change, or too few cells

| gene | migration robust z-score | migration class with cell-count check | nuclei per well, duplicate mean |
| --- | --- | --- | --- |
| CCNK (cyclin K) | 0.32 | migration z between -2 and 2; enough cells | 5787 |
| RGS16 (regulator of G protein signaling 16) | -0.84 | migration z between -2 and 2; enough cells | 5889 |
| PIGG | -0.57 | migration z between -2 and 2; enough cells | 6038 |
| ARX (aristaless related homeobox) | -0.83 | migration z between -2 and 2; enough cells | 5710 |
| PTN (pleiotrophin) | -0.91 | migration z between -2 and 2; enough cells | 4008 |
| PSPH (phosphoserine phosphatase) | 0.75 | migration z between -2 and 2; enough cells | 6997 |
| OR6B2 (olfactory receptor family 6 subfamily B member 2) | 0.9 | migration z between -2 and 2; enough cells | 5174 |
| SLC30A6 | 0.28 | migration z between -2 and 2; enough cells | 5800 |
| AMPD2 (adenosine monophosphate deaminase 2) | 0.6 | migration z between -2 and 2; enough cells | 5023 |
| STT3B (STT3 oligosaccharyltransferase complex catalytic subunit B) | -1.84 | migration z between -2 and 2; enough cells | 4928 |
| SYTL3 (synaptotagmin like 3) | -1.38 | migration z between -2 and 2; enough cells | 6324 |
| TP53INP2 (tumor protein p53 inducible nuclear protein 2) | -0.33 | migration z between -2 and 2; enough cells | 6359 |
| ZNF415 (zinc finger protein 415) | 1.35 | migration z between -2 and 2; enough cells | 5651 |
| SLC25A2 | -0.21 | migration z between -2 and 2; enough cells | 4596 |
| TCP10L (t-complex 10 like) | 0.52 | migration z between -2 and 2; enough cells | 6194 |
| DBNDD1 (dysbindin domain containing 1) | 2.08 (active) | migration z above 2; enough cells | 6468 |
| OR51I2 (olfactory receptor family 51 subfamily I member 2) | -1.64 | migration z between -2 and 2; enough cells | 6577 |
| MYO3A (myosin IIIA) | -0.83 | migration z between -2 and 2; enough cells | 4644 |
| TGFBR2 (transforming growth factor beta receptor 2) | -2.67 (active) | migration z below -2; enough cells | 4013 |
| TTC14 (tetratricopeptide repeat domain 14) | 0.56 | migration z between -2 and 2; enough cells | 6027 |
| MAP2K4 (mitogen-activated protein kinase kinase 4) | -1.77 | migration z between -2 and 2; enough cells | 4002 |
| IFT122 (intraflagellar transport 122) | 0.26 | migration z between -2 and 2; enough cells | 4948 |
| GSG1L (GSG1 like) | -0.23 | migration z between -2 and 2; enough cells | 5716 |
| ZNF324B (zinc finger protein 324B) | 1.3 | migration z between -2 and 2; enough cells | 5445 |
| C14orf93 (chromosome 14 open reading frame 93) | -0.14 | migration z between -2 and 2; enough cells | 6239 |
| GML (glycosylphosphatidylinositol anchored molecule like) | -0.72 | migration z between -2 and 2; enough cells | 4408 |
| CCPG1 (cell cycle progression 1) | 0.69 | migration z between -2 and 2; enough cells | 5068 |
| PPIL1 (peptidylprolyl isomerase like 1) | -0.36 | migration z between -2 and 2; enough cells | 5652 |
| MCMDC2 (minichromosome maintenance domain containing 2) | 0.1 | migration z between -2 and 2; enough cells | 6190 |
| MRPL40 (mitochondrial ribosomal protein L40) | -0.84 | migration z between -2 and 2; enough cells | 5665 |
| DNAH12 (dynein axonemal heavy chain 12) | 0.82 | migration z between -2 and 2; enough cells | 7894 |
| PRDX6 (peroxiredoxin 6) | -0.46 | migration z between -2 and 2; enough cells | 3810 |
| BMP8B (bone morphogenetic protein 8b) | -0.5 | migration z between -2 and 2; enough cells | 5884 |
| ZCCHC14 (zinc finger CCHC-type containing 14) | -0.9 | migration z between -2 and 2; enough cells | 6044 |
| SLC6A6 | 0.57 | migration z between -2 and 2; enough cells | 5830 |
| GEMIN5 (gem nuclear organelle associated protein 5) | 0.7 | migration z between -2 and 2; enough cells | 5564 |
| PRLH (prolactin releasing hormone) | -2.31 (active) | migration z below -2; enough cells | 5944 |
| CTPS2 (CTP synthase 2) | 0.26 | migration z between -2 and 2; enough cells | 5948 |
| EIF4A3 (eukaryotic translation initiation factor 4A3) | -1.92 | migration z between -2 and 2; enough cells | 4144 |
| EFHC1 (EF-hand domain containing 1) | 0.84 | migration z between -2 and 2; enough cells | 5866 |
| QTGAL (queuosine-tRNA galactosyltransferase) | 1.04 | migration z between -2 and 2; enough cells | 6020 |
| DBNL (drebrin like) | 0.8 | migration z between -2 and 2; enough cells | 5306 |
| SPRR2F (small proline rich protein 2F) | -1.41 | migration z between -2 and 2; enough cells | 5020 |
| SLC35H1 | 0.37 | migration z between -2 and 2; enough cells | 5911 |
| MSH4 (mutS homolog 4) | -5.13 | under 3300 nuclei; migration not judged | 2937 |
| ROPN1L (rhophilin associated tail protein 1 like) | -1.25 | migration z between -2 and 2; enough cells | 5416 |
| FCGR3B (Fc gamma receptor IIIb) | 0.83 | migration z between -2 and 2; enough cells | 5595 |
| RPS3A (ribosomal protein S3A) | 0.52 | migration z between -2 and 2; enough cells | 4487 |
| BABAM1 (BRISC and BRCA1 A complex member 1) | -0.06 | migration z between -2 and 2; enough cells | 5368 |
| SLC23A3 | 0.73 | migration z between -2 and 2; enough cells | 6195 |
| WNT16 (Wnt family member 16) | 1.24 | migration z between -2 and 2; enough cells | 7128 |
| NAAA (N-acylethanolamine acid amidase) | 1.09 | migration z between -2 and 2; enough cells | 4846 |
| CYP2W1 (cytochrome P450 family 2 subfamily W member 1) | -0.24 | migration z between -2 and 2; enough cells | 5743 |
| SRGAP3 (SLIT-ROBO Rho GTPase activating protein 3) | 0.48 | migration z between -2 and 2; enough cells | 6172 |
| KIF1A (kinesin family member 1A) | -0.2 | migration z between -2 and 2; enough cells | 5822 |
| CD3D (CD3 delta subunit of T-cell receptor complex) | -0.32 | migration z between -2 and 2; enough cells | 5938 |
| PTPN9 (protein tyrosine phosphatase non-receptor type 9) | 0.39 | migration z between -2 and 2; enough cells | 6155 |
